Measured values as given in PubChem BioAssay AID504467 (National Center for Advancing Translational Sciences (NCATS), 2011).
The campaign covered roughly 330,000 compounds. About 7,700 (2.3%) were called active. Inconclusive means that the source gave no clear call. Such entries were picked first, then a sample of the others. The call rests on the fitted dose curve; in most records, active means well fitted inhibition curve with a large enough effect; inconclusive means small, poorly fitted or top-dose-only effect, or effect the other way; inactive means flat fitted curve, though single readings scatter. Potencies beside an inconclusive call are fits to weak or partial responses and may not hold up.

Assay: qHTS screen for small molecules that inhibit ELG1-dependent DNA repair in human embryonic kidney (HEK293T) cells expressing luciferase-tagged ELG1; further: nearly all actives have a fitted effect of over 55% in size
Settings: HEK293T ELG1-luciferase reporter, luminescence, 16 h, DNA damage induced by 5-fluorouridine; activity change, negative = inhibition: at 46.1 µM (top of the series)
Method in brief: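 Quantitative HTS, concentration-response format. 2,000 cells/well co-treated with 5-fluorouridine and compound, 16 hr in 5% CO2 at 37 °C; ONE-Glo luminescence read after 30 min.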
On the % scale 0 is the no-effect control and ±100 the full control effect; potency means the concentration at half of the fitted maximal effect.

SMILES | Potency | activity change, negative = inhibition
Cc1c(NC(=O)CN2C(=O)NC3(CCCCC3C)C2=O)cccc1[N+](=O)[O-] (centres undefined) | inconclusive: 5.8 µM [inhibitor, single point] | –
Cc1ccc2nc(-c3ccccc3O)c(Nc3ccc4c(c3)OCCO4)n2c1 | – | inactive: -23.9%
CC(C)(C)c1ccc(NC(=O)COC(=O)CCN2C(=O)c3cccc([N+](=O)[O-])c3C2=O)cc1 | inconclusive: 16.4 µM [activator, single point] | –
O=C(COC(=O)c1cccc(-n2cnnn2)c1)c1ccc(Br)cc1 | inconclusive: 18.3 µM [activator, partial curve] | –
CCOC(=O)Cc1csc(NC(=O)Cc2ccc([N+](=O)[O-])cc2)n1 | inconclusive: 23.1 µM [inhibitor, single point] | –
CC(=O)CSc1nnc2cc(C)c3ccccc3n12 | inconclusive: 14.6 µM [activator, partial curve, poor fit] | –
COc1ccccc1-c1nc2c3ccccc3nc(=S)n2[nH]1 | – | inactive: 8.2%
Cc1ccc2oc(C(=O)NCC(c3ccco3)N3CCCC3)c(C)c2c1 (centres undefined) | inconclusive: 11.6 µM [activator, partial curve, poor fit] | –
CC(C)[C@H](NC(=O)c1ccccc1)C(=O)OCC(=O)Nc1sccc1C(N)=O | inconclusive: 23.1 µM [inhibitor, single point] | –
Cc1ccccc1/C=c1\s/c(=C\C(=O)C(C)(C)C)[nH]c1=O | inconclusive: 18.4 µM [inhibitor, single point] | –
O=C(NC(Cc1c[nH]c2ccccc12)C(=O)O)c1ccc(F)cc1 (centres undefined) | inconclusive: 1.16 µM [activator, single point] | –
Oc1ccc2cc(Br)ccc2c1CN1CCCC1 | – | inactive: 6.44%
COc1ccccc1CNC(=O)COC(=O)c1ccccc1-c1ccccc1 | inconclusive: 29.1 µM [inhibitor, partial curve, poor fit] | –
COc1cc(C(=O)Oc2ccccc2/C=N/NC(=O)c2ccc(C)cc2)cc(OC)c1OC | inconclusive: 0.82 µM [activator, full curve] | –
CC(/C=N/NC(=O)Cn1cnc2c1c(=O)n(C)c(=O)n2C)=C\c1ccco1 | – | inactive: 5.54%
Cc1c(C(=O)O)cccc1-c1ccc(/C=C2\SC(=O)NC2=O)o1 | – | inactive: -4.91%
COc1ccc(NC(=O)COC(=O)CC23CC4CC(CC(C4)C2)C3)c([N+](=O)[O-])c1 | inconclusive: 20.6 µM [inhibitor, single point] | –
COc1cccc(NC(=O)C2C3C=CC4(O3)C2C(=O)N(CCCN2CCCC(C)C2)C4C(=O)NC2CCCCC2C)c1 (centres undefined) | – | inactive: 12.1%
COc1cccc(N2CCN(C(=S)Nc3cccc(C)c3)CC2)c1 | – | inactive: -1.86%
CC1(C)CC(=O)C(C(C2=C(O)CC(C)(C)CC2=O)c2cccc(O)c2)C(=O)C1 (centres undefined) | – | inactive: -3.33%
Cc1cc(Br)ccc1NC(=O)CN(C)C(=O)CSC(=S)N1CCCC1 | inconclusive: 29.1 µM [inhibitor, single point] | –
O=C(CN1C(=O)NC2(CCCCCC2)C1=O)c1ccc(Cl)cc1 | inconclusive: 11.6 µM [activator, partial curve] | –

SMILES | Potency | activity change, negative = inhibition
O=C(Nc1ccc(F)cc1)C1CCN(C(=O)c2ccc(F)cc2)CC1 | – | inactive: 0.743%
O=C(NC(=S)NCCC1=CCCCC1)c1ccco1 | inconclusive: 18.3 µM [activator, partial curve] | –
CCOc1cc(C2C(C(=O)c3ccc(C)o3)=C(O)C(=O)N2CCc2ccccc2)ccc1O (centres undefined) | – | inactive: -1.79%
CCN1CCN(C(=O)N(CC(=O)Nc2ccc(C(N)=O)cc2)S(=O)(=O)c2ccc(C)cc2)CC1 | inconclusive: 2.82 µM [activator, full curve, poor fit] | –
Cc1ccc2nc(SCC(=O)Nc3ccc4[nH]c(=O)[nH]c4c3)[nH]c2c1 | inconclusive: 23.1 µM [activator, partial curve, poor fit] | –
CC(=O)Nc1ccc(S(=O)(=O)NNC(=O)CCC(=O)NCc2ccccc2)cc1 | inconclusive: 9.2 µM [activator, partial curve] | –
Cc1c(C(=O)NCc2ccco2)oc2ccc(Br)cc12 | inconclusive: 29.1 µM [activator, single point] | –
CCOc1ccccc1NC(=O)c1ccc(NC(=O)C2CCCO2)cc1 (centres undefined) | – | inactive: -9.68%
CC(=O)Nc1ccc(NC(=O)CNC(=O)c2cccc(C)c2)cc1 | inconclusive: 14.6 µM [activator, single point] | –
O=c1c2ccccc2ncn1-c1ccc2c(c1)OCCO2 | inconclusive: 18.4 µM [activator, single point] | –
COc1ccccc1N1CCN(CC(=O)c2c(C)n(C)c3ccccc23)CC1 | inconclusive: 10.3 µM [inhibitor, partial curve] | –
CC(C)c1ccc(NC(=O)CSc2nc(=O)[nH]c3c2CCCC3)cc1 | – | inactive: -17.1%
CN1/C(=C\C(=O)COC(=O)C2COc3ccccc3O2)C(C)(C)c2ccccc21 (centres undefined) | – | inactive: -22.1%
CC1=CC(C)(C)n2c(O)c(N=NC(N)=S)c3cccc1c32 | – | inactive: 14.7%
OCc1cn(-c2ccccc2)nc1-c1cc2ccccc2o1 | inconclusive: 2.59 µM [activator, partial curve] | –
COC(OC)c1ccnc(-c2ccc(OC(=O)c3cccs3)cc2)n1 | inconclusive: 20.6 µM [activator, single point] | –
O=C(Cc1cccs1)NCc1ccco1 | – | inactive: 13.2%
COc1ccccc1C(=O)Nc1ccccc1SC(=O)c1ccccc1OC | inconclusive: 10.3 µM [activator, partial curve] | –
Cn1c(N)c(C(=O)COC(=O)/C=C/c2ccc(Cl)cc2Cl)c(=O)n(C)c1=O | inconclusive: 16.4 µM [inhibitor, partial curve, poor fit] | –
N#Cc1c(N)nc2c(c1N)CC(=O)N2c1ccc(Cl)cc1 | inconclusive: 16.4 µM [activator, partial curve, poor fit] | –
COc1ccc(N/N=C(\C#N)C(N)=O)cc1 | inconclusive: 23.1 µM [activator, partial curve, poor fit] | –
COc1ccc(-n2nc(C(=O)NCC(=O)NCC3COc4ccccc4O3)c3ccccc3c2=O)cc1 (centres undefined) | inconclusive: 23.1 µM [inhibitor, single point] | –

Given as a markdown table: 2 of the compounds above.

| SMILES | Potency | activity change, negative = inhibition |
| --- | --- | --- |
| OCc1cn(-c2ccccc2)nc1-c1cc2ccccc2o1 | inconclusive: 2.59 µM [activator, partial curve] | – |
| COc1ccccc1C(=O)Nc1ccccc1SC(=O)c1ccccc1OC | inconclusive: 10.3 µM [activator, partial curve] | – |
